In paper PMC2654154, “Molecular Basis of Filamin A-FilGAP Interaction and Its Impairment in Congenital Disorders Associated with Filamin A Mutations” (PLoS ONE, 2009) one finds binding data, which are given here for four molecules.

Results are given in words; binding and its absence hold for the method and conditions named. For some of these results: Binding can be weak; no strength is given. For some of these results: Where a sequence is shown, tags or fusion partners need not be part of it.

Assay [1] concerns the target T1, MBP-His-FilGAP 649–748 (human) (UniProt Q8N264).
T1 sequence: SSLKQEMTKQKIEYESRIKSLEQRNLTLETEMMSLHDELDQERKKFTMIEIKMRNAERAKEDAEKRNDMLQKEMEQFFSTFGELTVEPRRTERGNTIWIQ
The assay is described as follows: pull-down; amylose resin coated with various concentrations of MBP-FilGAP 649–748; FLNa or its truncates in binding buffer, 1 h, 25°C; CBB or silver staining or immunoblot; both purified.

Assay [2] has as its target GST-IgFLNa20-24 A2461T (human). The assay is described as follows: pull-down; increasing amounts of GST-IgFLNa20-24 on glutathione beads; full-length FilGAP input 10 nM constant; immunoblot for FilGAP; both purified.
The target of assay [3] is GST-IgFLNa20-24 Y2483H (human). Described as above.
Assay [4] has as its target GST-IgFLNa20-24 D2467E (human). The assay is described as above.
For assay [5], the target named is GST-IgFLNa20-24, wild type (human). Described as above.

On to IgFLNb23-24 (domain or fragment), for which, in assay [1], the binding entry is listed as “no binding (tested: 0.2 uM repeats 23–24)”. “IgFLNa23-24 (human) (domain or fragment)”: the binding entry in assay [1] is reported as “binds”. Regarding IgFLNc23-24 (domain or fragment), the binding entry in assay [1] is given as “no binding (tested: 0.2 uM repeats 23–24)”.

B1: full-length FilGAP, purified from Sf9 insect cells (natural protein, human, UniProt Q8N264 1-748, looked up)
chain: MEENNDSTENPQQGQGRQNAIKCGWLRKQGGFVKTWHTRWFVLKGDQLYYFKDEDETKPLGTIFLPGNKVSEHPCNEENPGKFLFEVVPGGDRDRMTANHESYLLMASTQNDMEDWVKSIRRVIWGPFGGGIFGQKLEDTVRYEKRYGNRLAPMLVEQCVDFIRQRGLKEEGLFRLPGQANLVKELQDAFDCGEKPSFDSNTDVHTVASLLKLYLRELPEPVIPYAKYEDFLSCAKLLSKEEEAGVKELAKQVKSLPVVNYNLLKYICRFLDEVQSYSGVNKMSVQNLATVFGPNILRPKVEDPLTIMEGTVVVQQLMSVMISKHDCLFPKDAELQSKPQDGVSNNNEIQKKATMGQLQNKENNNTKDSPSRQCSWDKSESPQRSSMNNGSPTALSGSKTNSPKNSVHKLDVSRSPPLMVKKNPAFNKGSGIVTNGSFSSSNAEGLEKTQTTPNGSLQARRSSSLKVSGTKMGTHSVQNGTVRMGILNSDTLGNPTNVRNMSWLPNGYVTLRDNKQKEQAGELGQHNRLSTYDNVHQQFSMMNLDDKQSIDSATWSTSSCEISLPENSNSCRSSTTTCPEQDFFGGNFEDPVLDGPPQDDLSHPRDYESKSDHRSVGGRSSRATSSSDNSETFVGNSSSNHSALHSLVSSLKQEMTKQKIEYESRIKSLEQRNLTLETEMMSLHDELDQERKKFTMIEIKMRNAERAKEDAEKRNDMLQKEMEQFFSTFGELTVEPRRTERGNTIWIQ
notes: FilGAP, human, full length; Tag-free FilGAP was prepared from His-FilGAP with TEV protease; also called Purified FilGAP; source: Sf9 cells, purified (Ni-NTA)
As to B1, the binding result in assay [2] was “no binding (tested: 10 nM FilGAP input)”; in assay [3], “no binding (tested: 10 nM FilGAP input)”; in assay [4], “binds”; in assay [5] it was “binds”.
